Columns and labels:
DTP cells = test: Cell growth suppression test on DTP cells; assay type: cell-based, human; conditions: Table 3
Procedure: (§1) Next, for these nine compounds, a cell growth suppression test was conducted, and the ratio of IC50 of DTP cells with respect to the parental line was calculated.

[1] = test system: NCI-H2228 cells (parental cells); test: Cell growth suppression test on NCI-H2228 parental cells; assay type: cell-based; conditions: Homo sapiens, Table 3, nine screening hits
Procedure: as §1

COc1cc(OC)cc(N(CCNC(C)C)c2ccc3ncc(-c4cnn(C)c4)nc3c2)c1 [Erdafitinib, N^1-(3,5-dimethoxyphenyl)-N^2-(1-methylethyl)-N^1-[3-(1-methyl-1H-pyrazol-4-yl)-6-quinoxalinyl]-1,2-ethanediamine]
IC50 (DTP cells; Homo sapiens, nine screening hits): 0.0067 µM
IC50 Ratio of parental to DTP cells (DTP cells): 920.8
IC50 [1]: 6.14 µM
